Reference: paper PMC7819943, “Rice protein-binding microarrays: a tool to detect cis-acting elements near promoter regions in rice”
Some of the results follow.

Chains of the proteins cited; added tags and fusions are not shown.
UniProt Q0JBA9, entry or part of it: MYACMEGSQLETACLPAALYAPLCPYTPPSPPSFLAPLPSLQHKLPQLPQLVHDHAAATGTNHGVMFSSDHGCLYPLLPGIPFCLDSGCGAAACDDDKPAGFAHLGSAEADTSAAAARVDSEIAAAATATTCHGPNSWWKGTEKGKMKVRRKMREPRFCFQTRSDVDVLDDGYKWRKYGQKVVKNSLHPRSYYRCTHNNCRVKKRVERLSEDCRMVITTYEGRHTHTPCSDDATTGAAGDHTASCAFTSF

molecular target: OsWRKY34 (Oryza sativa, UniProt Q0JBA9 1-250); assay: protein-binding microarray (RPBM); PBS, 2% BSA, 51.3 ng/ul salmon testes DNA, 50 uM zinc acetate, 200 nM TF, 25 C, 1 h; high values mean tight binding; conditions: protein: recombinant; tags: N-terminal polyhistidine and DsRed monomer fusion (pET32a); label: CyDye5-dUTP incorporated in the synthesized complementary strand; 3' TTTTT single-stranded linker to array surface; dsDNA, one strand shown
In short: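 In PBS with 2% BSA, salmon testes DNA and 50 µM zinc acetate, 200 nM protein was incubated on a custom Agilent array at 25 °C for 1 h and then washed off. The array had been made double-stranded by primer extension with Cy5-dUTP and blocked with 2% BSA. The proteins were transcription factors fused N-terminally to polyhistidine and DsRed, expressed in E. coli BL21-CodonPlus and purified on Ni–NTA. The binding signal is per-feature fluorescence intensity (arbitrary units) from an Axon 4000B scanner.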

Q: How did the binding signal turn out when “CTCGATTGCCGATTAATTAGTTGACCTCTTCGCTTATCCTCGGAGTCACCTAGTGCAG” was run?
A: Its binding signal is 8340 fluorescence intensity (a.u.).

Q: Which binding signal does the source give for “TCTAGGTTCTGTTCTATTCGGTTCTAGGTTATCATATTTTCGGAGTCACCTAGTGCAG” here?
A: The binding signal was 12100 fluorescence intensity (a.u.).

Q: “ATTGCGACCATTATTATTCATTATTTTTCCGCGAGTCCAACGGAGTCACCTAGTGCAG” was tested. Which binding signal did it give?
A: Its binding signal is 9440 fluorescence intensity (a.u.).

Q: Which binding signal does the source give for “GAATTCCCCGATCCTCGGTTAATCTCGCCGTGTTGCCGTCCGGAGTCACCTAGTGCAG” here?
A: Its binding signal is 11200 fluorescence intensity (a.u.).

Q: With “GGATTTCTACACTAATCGCTTCCAATTCCATCGCTTTTCTCGGAGTCACCTAGTGCAG” as the sequence, how does the binding signal read?
A: Its binding signal is 12000 fluorescence intensity (a.u.).

Q: How did the binding signal turn out when “CATGGGTCATTTTGCTCTCTCCTATAACACATTACAAGTTCGGAGTCACCTAGTGCAG” was run?
A: The binding signal was 9830 fluorescence intensity (a.u.).

Q: How did the binding signal turn out when “CTCCGTTCATGTTTCTATCTCTCTGCTACCTCTTCTTTCACGGAGTCACCTAGTGCAG” was run?
A: The binding signal was 14300 fluorescence intensity (a.u.).

Q: “ATTGGCTGGGGTGGGGCATTTCTAGGGGCCCCGGGCGCCTCGGAGTCACCTAGTGCAG” was tested. Which binding signal did it give?
A: Its binding signal is 14500 fluorescence intensity (a.u.).

Q: “CATCCCCATCACTTTGATCACTTGTGTTGATCCTAATCTACGGAGTCACCTAGTGCAG” was tested. Which binding signal did it give?
A: Its binding signal is 8560 fluorescence intensity (a.u.).

Q: “GACCGCTTCACCCGCCCAATCAAAACCGTCCATCCATCCCCGGAGTCACCTAGTGCAG” was tested. Which binding signal did it give?
A: The binding signal was 10300 fluorescence intensity (a.u.).

Q: “CCAAAGTCTTATTCCTTCCGGTTTCTATCCTCTTGTTGGGCGGAGTCACCTAGTGCAG” was tested. Which binding signal did it give?
A: The binding signal was 9640 fluorescence intensity (a.u.).

Q: For “GGGTGGATTTTCTCTCCTGTCCCCGCACCTGGCCAAGACTCGGAGTCACCTAGTGCAG”, which binding signal is on record?
A: Its binding signal is 10100 fluorescence intensity (a.u.).

Q: With “AACTTTTGGACTCATAATCATACTAAACATATATATGCTACGGAGTCACCTAGTGCAG” as the sequence, how does the binding signal read?
A: Its binding signal is 8190 fluorescence intensity (a.u.).

Q: “GTAATTTAACCTGCTCTTATCTTTTTCAAGTTTGTTCATACGGAGTCACCTAGTGCAG” was tested. Which binding signal did it give?
A: The binding signal was 11500 fluorescence intensity (a.u.).

Q: “CGAGGGGATGGGCGGGGTTGATCGGCGCCGCGAAGGATGCCGGAGTCACCTAGTGCAG” was tested. Which binding signal did it give?
A: The binding signal was 9320 fluorescence intensity (a.u.).

Q: “AAAACACACCCTTACTCCTAGCAACACCTTGACTTCTCGCCGGAGTCACCTAGTGCAG” was tested. Which binding signal did it give?
A: The binding signal was 9300 fluorescence intensity (a.u.).

Q: “GCCCATCGCCTGACGCCGCACTTCGCCTCTGCGCCTGACTCGGAGTCACCTAGTGCAG” was tested. Which binding signal did it give?
A: The binding signal was 13400 fluorescence intensity (a.u.).

Q: With “TTACCGTGGTTATTGTTCTCTTACCATTTATTCTTGCCATCGGAGTCACCTAGTGCAG” as the sequence, how does the binding signal read?
A: Its binding signal is 10000 fluorescence intensity (a.u.).

Q: For “TCTGTACTGTACTGTACTCCTACCCTTTTTCTGGTCATTTCGGAGTCACCTAGTGCAG”, which binding signal is on record?
A: The binding signal was 9200 fluorescence intensity (a.u.).

Q: With “GAGTGTCTATGTACTTTACTTTTTTATTTTTTTTCTTCTACGGAGTCACCTAGTGCAG” as the sequence, how does the binding signal read?
A: The binding signal was 8620 fluorescence intensity (a.u.).

Q: With “CATACCCTCAGCCACCATTCCACGTCTAACTATATAATATCGGAGTCACCTAGTGCAG” as the sequence, how does the binding signal read?
A: The binding signal was 8710 fluorescence intensity (a.u.).

Q: “GGGAGGGGCTGCTAATTCGGTGTGATTAGTACAGTAGTTTCGGAGTCACCTAGTGCAG” was tested. Which binding signal did it give?
A: Its binding signal is 10100 fluorescence intensity (a.u.).

Q: Which binding signal does the source give for “GGGCCCGACGTATATATTTTTGTTTCAAATGCCACATAAGCGGAGTCACCTAGTGCAG” here?
A: The binding signal was 8030 fluorescence intensity (a.u.).

Q: With “GATGTTCCCTCGTTATTTGTATGTCACTTAAATGGTTATACGGAGTCACCTAGTGCAG” as the sequence, how does the binding signal read?
A: The binding signal was 8490 fluorescence intensity (a.u.).

Q: With “TTTACAGCAAACTTTCTCCAAACTCCTAACTTTCCATCACCGGAGTCACCTAGTGCAG” as the sequence, how does the binding signal read?
A: Its binding signal is 8190 fluorescence intensity (a.u.).

Q: How did the binding signal turn out when “GATTTTTTTTCCTGTACTGTTTAACCACTCGTATTATTTACGGAGTCACCTAGTGCAG” was run?
A: Its binding signal is 9420 fluorescence intensity (a.u.).

Q: “TTTGTACTTCCGATGCTACAATTTATGGTCCATGCCTCTCCGGAGTCACCTAGTGCAG” was tested. Which binding signal did it give?
A: The binding signal was 10300 fluorescence intensity (a.u.).

Q: For “GCAGTATCCTTGTGGTTTTCCTACAATTTTGTCTTGGTATCGGAGTCACCTAGTGCAG”, which binding signal is on record?
A: Its binding signal is 9230 fluorescence intensity (a.u.).

Q: For “TGTGCTGTTCTCTCCTTGATCCCTAGTCGTCGGATTTTGGCGGAGTCACCTAGTGCAG”, which binding signal is on record?
A: The binding signal was 11400 fluorescence intensity (a.u.).

Q: How did the binding signal turn out when “GTTCACTTCCTATACATTTTGCAACACACTTTTTGAACATCGGAGTCACCTAGTGCAG” was run?
A: Its binding signal is 9880 fluorescence intensity (a.u.).

Q: How did the binding signal turn out when “CTGGTTGTCTTCTGTAGAATTCTACTACTAGTATTATCACCGGAGTCACCTAGTGCAG” was run?
A: The binding signal was 8100 fluorescence intensity (a.u.).

Q: For “TATGCTGAAGTCGCTGCTGCTGGGGTGGGGAGTTTAAAAGCGGAGTCACCTAGTGCAG”, which binding signal is on record?
A: The binding signal was 13200 fluorescence intensity (a.u.).

Q: For “CGAGCTCCCACCTCCTCCGTCTCCAACTCCGGCGATATCTCGGAGTCACCTAGTGCAG”, which binding signal is on record?
A: Its binding signal is 8750 fluorescence intensity (a.u.).

Q: How did the binding signal turn out when “AGCCCTTTTCGAGTTGAACTATTCCGACTTGAGTATCCACCGGAGTCACCTAGTGCAG” was run?
A: Its binding signal is 8840 fluorescence intensity (a.u.).

Q: With “ACCCACCATACTAGTATCCCGATGATCTCCATCATCATCGCGGAGTCACCTAGTGCAG” as the sequence, how does the binding signal read?
A: The binding signal was 10000 fluorescence intensity (a.u.).

Q: For “TCTTCACCGGCAAGCCACATTTCACCTCGTCCAGCAACCTCGGAGTCACCTAGTGCAG”, which binding signal is on record?
A: The binding signal was 11000 fluorescence intensity (a.u.).

Q: Which binding signal does the source give for “AAATCACCACAACCCTGAGATCCATCACCAAGATGCTAAACGGAGTCACCTAGTGCAG” here?
A: The binding signal was 8200 fluorescence intensity (a.u.).

Q: For “CCCGTCTTGCCTTGTCTCCGGGTGGTGGAGCGCCTCTTCCCGGAGTCACCTAGTGCAG”, which binding signal is on record?
A: Its binding signal is 8980 fluorescence intensity (a.u.).

Q: For “ATAGGCTTCACCTTTTTTTATTTTTACCTTTATTACTTACCGGAGTCACCTAGTGCAG”, which binding signal is on record?
A: The binding signal was 9270 fluorescence intensity (a.u.).

Q: “ACCATCAGCTGGGTCCTCGTATCATAGTATGCCGTACGGCCGGAGTCACCTAGTGCAG” was tested. Which binding signal did it give?
A: The binding signal was 8560 fluorescence intensity (a.u.).

Q: With “TGTTGTTGGTTTGGGGATTTAATATGGATTGGAGCAGAAGCGGAGTCACCTAGTGCAG” as the sequence, how does the binding signal read?
A: The binding signal was 8240 fluorescence intensity (a.u.).

Q: With “CATATTCCTTTCTTGATTCTGTCCCGTCGCCCCACAAGTTCGGAGTCACCTAGTGCAG” as the sequence, how does the binding signal read?
A: Its binding signal is 8250 fluorescence intensity (a.u.).
